Measurements reported in PubChem BioAssay AID652259 (Drosophila RNAi Screening Center, 2013)

Purpose: 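Knock-downs that push a Wingless-driven reporter up or down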 (primary screen)
Cells: Drosophila clone 8 imaginal disc epithelial cells
Reagent: long dsRNA against Drosophila genes
Conditions: pathway stimulated by co-transfected Wingless expression plasmid
Measurement: 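Firefly luciferase from a tcf-site Wingless reporter, measured alongside co-transfected Renilla luciferase that tracks transfection; pathway stimulated by a Wingless plasmid; the firefly-to-Renilla ratio is not deposited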
Scale: firefly reporter light: higher = more Wg reporter light, before normalisation; Renilla control light: higher = more transfected or surviving cells
Rule for the call: 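a knock-down is a candidate when at least two out of four statistical tests show it departing from its plate mean; one test alone signals a weak candidate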
Calls: active = candidate regulator (raises or lowers reporter); inactive = not a candidate
The deposit covers about 22,000 reagents; this is an unselected part of those that have a named target and a result. In the full data, 233 (1.1%) were called active. 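Light values are raw, unnormalised plate reads; the ratio scores behind the reporter calls were not deposited.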 A number with no mark means an inactive call. Reagents against one gene are numbered here. A plus sign joins genes that one reagent is predicted to hit. Not stated in the record: the amount of reagent, the time to read-out, the dose of the treatment.

target gene	reagent no.	reporter change call, replicate 1	firefly reporter light, replicate 1	firefly reporter light, replicate 2	Renilla control light, replicate 1	Renilla control light, replicate 2
Gr43a	1		2859	6992	691	2198
gb	1		2934	5907	1488	2339
robo1	1		3349	6544	800	2764
CG34232	1		13522		11206	
kairos	1		3044	11778	1362	3001
CG1847	1		2616	4612	859	1776
sc	1		20763		8320	
ric8b + ric8a	1		19897		9240	
mus304	1		4736		2355	
TrpA1	1		738	5802	768	2444
Utx	1		3186	5797	1298	3684
CG43062	1		3888		1280	
CG8435	1		13164		1544	
Nnf1b	1		7.72e5	7.80e5	3.50e5	3.74e5
l(1)G0469	1		4103	10832	1569	3833
l(1)G0469	2		17539		7021	
Zir	1		10427		2305	
CG1910	1		1891	6733	934	2234
tut	1		2848		400	
CG2887	1		18162		7800	
CG12299	1	Wg reporter activity raised (active)	25568		2164	
CG5687	1		12394		4413	
CR33318	1		5.14e5	5.16e5	2.13e5	1.56e5
Nprl2	1		2356	5572	736	1576
Coq5	1		26277		12523	
Coq5	2		3.85e5	3.90e5	1.59e5	1.31e5

Called active, among the entries above:
target gene	reagent no.	reporter change call, replicate 1	firefly reporter light, replicate 1	firefly reporter light, replicate 2	Renilla control light, replicate 1	Renilla control light, replicate 2
CG12299	1	Wg reporter activity raised (active)	25568		2164	

The list goes on.
target gene	reagent no.	reporter change call, replicate 1	firefly reporter light, replicate 1	firefly reporter light, replicate 2	Renilla control light, replicate 1	Renilla control light, replicate 2
QC	1		8836		3754	
CG4375	1		2372	6262	980	2688
CG7772	1		3731	11414	1477	3576
srp	1		2579		746	
srp	2		12619		1841	
Usp10	1		20824		5482	
Usp10	2		4453		1818	
CG5255	1		14653		4464	
Trm1	1		10541		3638	
ppk5	1		5041		1782	
GstZ2	1		7089		2410	
betaTub60D	1		3536	10506	970	3184
betaTub60D	2		3.96e5	4.37e5	1.40e5	1.44e5
Asph	1		4789		2592	
Asph	2		9072		3126	
Polr3I	1		1760	6602	967	2108
Rab1	1		36493		6857	
rdo	1		11319		2227	
Nepl20	1		9968		5223	
CG10171	1		10274		3147	
ssp5	1		9025		3440	
CG7766	1		1952	4435	732	1636
Hacd1	1		5025		1450	
